PubChem BioAssay AID248 (DTP/NCI, 2004)
The list shows only some results of the screen, not a fair sample: it is rich in T/C values a quarter to a half above the control, in often repeated tests (any T/C) and in doses without a T/C. Further doses and runs are listed elsewhere. T/C: endpoint of the treated group in % of that of the vehicle group. Some doses have a count of surviving animals in place of a T/C: the source holds a T/C of zero for them, seemingly a mark for toxic or unscored doses. Some survivor counts are full or nearly so, which does not show that the dose was tolerated: the source hardly ever lists a survival T/C far under the control, and the zero likely stands for such cases as well. Counts of survivors are from the toxicity check (mostly the fifth day) where no day follows; animals may have died later. Schedule codes are those of the source, taken here to give the interval after Q, in days (D) or hours (H), and the number of doses after X.

System: L1210 leukemia ip in BDF1 mice, survival T/C
Assay: NCI In Vivo Anticancer Drug Screen. Data for tumor model L1210 Leukemia (intraperitoneal) in B6D2F1 (BDF1) mice
Details: T/C endpoint: mean survival time, higher T/C = longer survival
[1] = dose: 200.0 mg/kg/injection, schedule: Q04DX003 (ip), vehicle: Klucel (hydroxypropylcellulose) (HPC)
[2] = dose: 400.0 mg/kg/injection, schedule: Q01DX001 (ip), vehicle: saline
[3] = dose: 400.0 mg/kg/injection, schedule: Q01DX009 (ip), vehicle: saline with Tween-80
[4] = dose: 200.0 mg/kg/injection, schedule: Q01DX009 (ip), vehicle: saline
[5] = dose: 400.0 mg/kg/injection, schedule: Q01DX009 (ip), vehicle: saline
[6] = dose: 400.0 mg/kg/injection, schedule: Q04DX003 (ip), vehicle: Klucel (hydroxypropylcellulose) (HPC)

CN(C)c1ccc(/C=C/c2ccc3ccccc3[n+]2C)cc1
survivor count (dose: 6.0 mg/kg/injection, schedule: Q01DX009 (ip), vehicle: Klucel (hydroxypropylcellulose) (HPC)): 3 of 6
survivor count (dose: 12.5 mg/kg/injection, schedule: Q01DX009 (ip), vehicle: Klucel (hydroxypropylcellulose) (HPC)): 0 of 6
survivor count (dose: 25.0 mg/kg/injection, schedule: Q01DX009 (ip), vehicle: Klucel (hydroxypropylcellulose) (HPC)): 0 of 6
survivor count (dose: 25.0 mg/kg/injection, schedule: Q04DX003 (ip), vehicle: Klucel (hydroxypropylcellulose) (HPC)): 3 of 6
survivor count (dose: 50.0 mg/kg/injection, schedule: Q01DX009 (ip), vehicle: Klucel (hydroxypropylcellulose) (HPC)): 0 of 6
survivor count (dose: 50.0 mg/kg/injection, schedule: Q04DX003 (ip), vehicle: Klucel (hydroxypropylcellulose) (HPC)): 0 of 6
survivor count (dose: 75.0 mg/kg/injection, schedule: Q01DX009 (ip), vehicle: Klucel (hydroxypropylcellulose) (HPC)): 0 of 6
survivor count (dose: 100.0 mg/kg/injection, schedule: Q04DX003 (ip), vehicle: Klucel (hydroxypropylcellulose) (HPC)): 0 of 6
survivor count (dose: 150.0 mg/kg/injection, schedule: Q01DX009 (ip), vehicle: Klucel (hydroxypropylcellulose) (HPC)): 0 of 6
survivor count [1]: 0 of 6
survivor count [2]: 0 of 6

O=[N+]([O-])c1ccc(/C=C/C=C/c2ccc(Cl)cc2Cl)cc1
survivor count [3]: 5 of 6

Cc1cc2ccccc2c(N)c1C#N
survivor count (dose: 200.0 mg/kg/injection, schedule: Q04DX002 (ip), vehicle: saline with Tween-80): 6 of 6
survivor count [3]: 3 of 3

Cc1ncc(N)c2c1OC(C)(C)OC2
survivor count (dose: 100.0 mg/kg/injection, schedule: Q01DX001 (ip), vehicle: saline): 1 of 4
survivor count (dose: 200.0 mg/kg/injection, schedule: Q01DX001 (ip), vehicle: saline): 1 of 4
survivor count [2]: 0 of 4

Clc1nc2ccccc2nc1Cl
survivor count (dose: 50.0 mg/kg/injection, schedule: Q04DX003 (sc), vehicle: olive oil, sesame oil, peanut oil): 1 of 3
survivor count (dose: 100.0 mg/kg/injection, schedule: Q04DX003 (sc), vehicle: olive oil, sesame oil, peanut oil): 0 of 3
survivor count (dose: 200.0 mg/kg/injection, schedule: Q04DX003 (sc), vehicle: olive oil, sesame oil, peanut oil): 0 of 3
survivor count (dose: 400.0 mg/kg/injection, schedule: Q04DX003 (sc), vehicle: olive oil, sesame oil, peanut oil): 0 of 3

CC(=O)c1cccc(NC(=O)Nc2ccc(S(N)(=O)=O)cc2)c1
survivor count [3]: 3 of 6

NC(=O)N/N=C(\CBr)c1ccc(Br)cc1
survivor count [4]: 4 of 6
survivor count [5]: 3 of 6

Cc1cccc(Cl)c1N=C=O
survivor count [2]: 0 of 4

COC1=C2CCCCC2=[N+]2CCc3ccccc3C2C1 (stereo not drawn)
survivor count (dose: 200.0 mg/kg/injection, schedule: Q01DX001 (ip), vehicle: Klucel (hydroxypropylcellulose) (HPC)): 3 of 6
survivor count (dose: 400.0 mg/kg/injection, schedule: Q01DX001 (ip), vehicle: Klucel (hydroxypropylcellulose) (HPC)): 0 of 6

Cc1cc(=O)[nH]c(N/N=C/c2ccco2)n1
survivor count [6]: 1 of 6

O=C(CCN1CC1)OC1CCCC1
survivor count (dose: 5.0 mg/kg/injection, schedule: Q01DX009 (ip), vehicle: Klucel (hydroxypropylcellulose) (HPC)): 6 of 6
survivor count (dose: 10.0 mg/kg/injection, schedule: Q01DX009 (ip), vehicle: Klucel (hydroxypropylcellulose) (HPC)): 5 of 6
survivor count (dose: 20.0 mg/kg/injection, schedule: Q01DX009 (ip), vehicle: Klucel (hydroxypropylcellulose) (HPC)): 6 of 6
survivor count (dose: 40.0 mg/kg/injection, schedule: Q01DX009 (ip), vehicle: Klucel (hydroxypropylcellulose) (HPC)): 0 of 6
survivor count (dose: 80.0 mg/kg/injection, schedule: Q01DX009 (ip), vehicle: Klucel (hydroxypropylcellulose) (HPC)): 0 of 6
survivor count [1]: 2 of 6
survivor count [6]: 0 of 6

CN(C)CCC1(c2ccccc2)C=Cc2ccccc21 (stereo not drawn)
survivor count (dose: 100.0 mg/kg/injection, schedule: Q01DX009 (ip), vehicle: saline): 3 of 6
survivor count [4]: 0 of 6
survivor count [5]: 0 of 6

CN(C)CCC/C=N/Nc1ccc(Cl)cc1[N+](=O)[O-]
survivor count (dose: 400.0 mg/kg/injection, schedule: Q04DX003 (ip), vehicle: saline with Tween-80): 0 of 6

c1ccc(-c2ccno2)cc1
survivor count (dose: 150.0 mg/kg/injection, schedule: Q01DX009 (ip), vehicle: saline with Tween-80): 0 of 6
survivor count (dose: 300.0 mg/kg/injection, schedule: Q01DX009 (ip), vehicle: saline with Tween-80): 0 of 6

O=C1NC(=S)S/C1=C/c1ccc(/C=C2/SC(=S)NC2=O)cc1
survivor count (dose: 200.0 mg/kg/injection, schedule: Q01DX001 (ip), vehicle: carboxymethylcellulose (CMC)): 4 of 4
survivor count (dose: 400.0 mg/kg/injection, schedule: Q01DX001 (ip), vehicle: carboxymethylcellulose (CMC)): 4 of 4
